# Measurements from PubChem BioAssay AID540275 (National Center for Advancing Translational Sciences (NCATS), 2011).
# By UniProt entry, the sequences of proteins in these tests, tags left out.
# UniProt Q8NER1, whole entry, looked up: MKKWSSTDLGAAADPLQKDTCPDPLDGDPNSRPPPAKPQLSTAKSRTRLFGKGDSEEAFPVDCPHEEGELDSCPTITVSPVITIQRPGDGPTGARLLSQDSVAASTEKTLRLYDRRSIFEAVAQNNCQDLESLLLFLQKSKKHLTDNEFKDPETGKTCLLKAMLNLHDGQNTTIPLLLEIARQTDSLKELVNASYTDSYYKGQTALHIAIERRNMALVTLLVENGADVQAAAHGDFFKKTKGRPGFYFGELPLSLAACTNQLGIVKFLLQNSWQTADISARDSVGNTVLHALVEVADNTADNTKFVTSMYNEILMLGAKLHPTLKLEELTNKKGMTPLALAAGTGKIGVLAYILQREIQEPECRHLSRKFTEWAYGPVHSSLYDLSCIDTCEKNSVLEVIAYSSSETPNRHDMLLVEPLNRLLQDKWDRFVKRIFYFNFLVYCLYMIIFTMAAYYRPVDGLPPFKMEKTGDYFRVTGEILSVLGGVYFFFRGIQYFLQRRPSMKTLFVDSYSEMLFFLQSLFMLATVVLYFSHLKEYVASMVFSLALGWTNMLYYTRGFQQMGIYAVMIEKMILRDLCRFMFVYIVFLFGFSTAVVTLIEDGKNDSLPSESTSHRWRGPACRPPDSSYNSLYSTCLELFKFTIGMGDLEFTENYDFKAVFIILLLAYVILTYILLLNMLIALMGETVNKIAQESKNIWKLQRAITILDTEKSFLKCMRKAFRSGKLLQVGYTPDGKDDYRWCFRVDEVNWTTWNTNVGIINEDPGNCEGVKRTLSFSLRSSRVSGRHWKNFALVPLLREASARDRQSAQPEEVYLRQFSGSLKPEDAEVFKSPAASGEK
# The whole screen tested about 320,000 compounds, of which about 620 (0.19%) were called active. The inconclusive results got no clear call from the source; some entries with a clear call stand among them for comparison. No stated cut-off is given here; in the data, active means activation above about 80%; inconclusive means between about 30% and that limit; inactive means weaker than that.
# Molecular target: Transient receptor potential cation channel subfamily V member 1 (Homo sapiens) (UniProt Q8NER1)
# Assay: HTS Assay for Compounds that Act as Agonists of the Vanilloid Receptor 1; further: 0% is about no effect
# Conditions: TRPV1-expressing cells, Fluo-8 calcium influx, agonist mode; at 8.33 µM, active compounds read high
# How it was run: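 TRPV1-expressing cells were cultured overnight at 35.5C and loaded with Fluo-8 calcium dye for 40 to 90 min at room temperature. After a 10 s baseline, compound was added and calcium influx was read kinetically for 3 min (ex 480/em 520 nm).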
row,Compound,activation
1,Cc1nc(N2CCC(C)CC2)c2c(C)c(C(=O)Nc3cc(F)ccc3C)sc2n1,inconclusive: 63.6%
2,COc1cccc(-n2c(-c3ccccc3)c[nH]c2=S)c1,inactive: -1.34%
3,COc1ccc(-c2nc(C#N)c(N3CCCCC3)o2)cc1,inconclusive: 47.3%
4,N#Cc1c(-c2cccs2)cc(-c2cccnc2)nc1N,inconclusive: 48.7%
5,Cc1csc(CNC(=O)c2cc(COc3c(C)cccc3C)on2)n1,inconclusive: 66.1%
6,COCCNC(=S)N/N=C(\C)c1cc2ccccc2o1,inactive: 11.2%
7,COc1ccc(C2=NOC(CNC(=S)N3CCOCC3)C2)cc1 (stereo not given),inconclusive: 69%
8,COc1ccc(-c2nc(Cn3c(SCc4cccc(F)c4)nc4ccncc43)c(C)o2)cc1OC,inactive: 8.23%
9,COC(=O)c1sccc1-c1ccc(C(=O)Nc2cccc(Cl)c2)o1,inconclusive: 37.5%
10,Cc1cccn2c(=O)c3cc(C(=O)NCc4cccnc4)c(=N)n(C(C)C)c3nc12,inconclusive: 56.3%
11,CC(Oc1ccc(-c2nccc(-c3ccccn3)n2)cc1)C(=O)NN (stereo not given),inconclusive: 31.1%
12,Cc1cccc(N2CCN(C(=O)CCS(=O)(=O)c3ccc4c(c3)NC(=O)C(C)S4)CC2)c1C (stereo not given),inconclusive: 30.5%
13,CCCCNC(=O)c1cn(-c2ccc(OCC)cc2)c(=O)c2cc(OC)c(OC)cc12,inactive: 24.2%
14,NC(=S)N/N=C/c1cc([N+](=O)[O-])ccc1Cl,inactive: -5.32%
15,COc1ccc(NC(=O)Nc2ccc3nonc3c2)cc1,inconclusive: 52.8%
16,O=C(CC1CC2CCC1C2)OCC(=O)c1c[nH]c2ccccc12 (stereo not given),inconclusive: 59.7%
17,CCC(C(=O)Nc1ccc(C)cc1)c1ccccc1 (stereo not given),inconclusive: 33%
18,O=C1OC(CC(=O)N(Cc2nnc(-c3ccc(Cl)cc3)o2)C2CC2)c2ccccc21 (stereo not given),inactive: 0.129%
19,CC(OC(=O)c1cc(S(=O)(=O)N(C)c2ccccc2)ccc1Cl)C(=O)Nc1ccc2c(c1)OCCO2 (stereo not given),inconclusive: 42.6%
20,Cc1nc(SCc2ccc(Br)cc2)[nH]c(=O)c1C,inactive: -0.237%
21,Cc1cc(C(=O)NC2CCCc3c2cnn3-c2ccc(C)c(C)c2)n(C)n1 (stereo not given),inconclusive: 68.1%
22,CCCCc1cc2c(cc1NC(=O)CN1CCCCC1)OCCO2,inconclusive: 45.2%
23,Cc1nc2ccccc2c(=O)n1/N=C/c1ccc(N(C)C)cc1,inconclusive: 61.1%
24,CCOC1(OCC)N=C(N)C2(C#N)C(c3cccc(C)c3)C12C#N (stereo not given),inactive: 1.8%
25,O=C(CCCC1=NS(=O)(=O)c2ccccc2N1)OCc1ccc(Cl)cc1,inconclusive: 35.9%

# From entry 2 up to 3, copied from above:
row,Compound,activation
2,COc1cccc(-n2c(-c3ccccc3)c[nH]c2=S)c1,inactive: -1.34%
3,COc1ccc(-c2nc(C#N)c(N3CCCCC3)o2)cc1,inconclusive: 47.3%
